57 molecules from PubChem BioAssay AID2685 (National Center for Advancing Translational Sciences (NCATS), 2010) can be followed below.

Structures are written as SMILES. Some of the results follow. These are further read-outs of the screen, such as a control signal, another cell line or another target. No call is given for them. Compounds called inactive in the main read-out are mostly missing here. Words in brackets tell the shape of the fitted curve; partial curves, single points and poor fits give uncertain potencies.

A short description of the assay: qHTS Assay for Lipid Storage Modulators in Drosophila S3 Cells.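 For cell number change: cells counted by Cell Tracker Red CMTPX staining in the red channel.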 Conditions: BODIPY lipid droplet fluorescence, 18-24 h; for cell number change: measured here: cell count max response, cells fed with added oleic acid. In short, it runs like this: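 Drosophila S3 cells loaded with oleic acid (400 uM, as added) and compounds at several concentrations; lipid droplets imaged by 488-nm laser-scanning cytometry, 500–530 nm intensity and object ratio to cell channel. Percent activity normalized to 20 uM Triacsin C.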

Setting [1] is: measured here: cell number channel AC50, cells fed with added oleic acid.
The mark [2] stands for this setting: measured here: lipid fluorescence (Fed channel) AC50, cells fed with added oleic acid.

For `CCCCCCC(=O)Cc1cc(OC)c(OC)cc1C=C(C(=O)OCC)C(=O)OCC`, the cell number change worked out at 52.1%. Also, the half-maximal activity concentration (AC50) under setting [1] is 14.6 µM [rising, partial curve, poor fit]. For the same molecule, the AC50 under setting [2] is 0.0291 µM [falling, full curve, poor fit].
For `Cc1nc(Cl)c(C(=O)NC(=O)Nc2cccc(C(F)(F)F)c2)c(C)c1[N+](=O)[O-]`, the cell number change is -36.4%. Also, the half-maximal activity concentration (AC50) under setting [1] was 5.17 µM [falling, full curve, poor fit].
Turning to `COC(=O)c1ccc(NC(=O)CSc2nnc(-c3ccncc3)n2C)cc1`, the cell number change was found to be 7.93%. In addition, under setting [1], the AC50 was 3.66 µM [rising, partial curve, poor fit].
In the case of `CC(C)(C)C(C(Oc1ccc(Cl)cc1)n1cncn1)n1nnnc1C(c1cccc(Cl)c1)N1CCCCC1` (stereo not drawn), the cell number change was -11.7%. The AC50 under setting [2] was 32.6 µM [falling, single point].
As to `CCCCCCCCc1nc(SC(C)C(=O)O)n[nH]1` (stereo not drawn), the AC50 under setting [2] was 29.1 µM [rising, single point].
In the case of `O=C(/C=C/c1ccc(F)cc1)NC(=S)NNC(=O)c1cnccn1`, the cell number change is 37.1%. Besides, the concentration at half-maximal activity (AC50) under setting [1] is 2.06 µM [rising, partial curve]. For the same molecule, under setting [2], the half-maximal activity concentration (AC50) was 2.59 µM [rising, single point].
Take `Cc1ccc(OCC(=O)Nc2ccc(N3CCN(C(=O)c4ccco4)CC3)cc2)cc1C`: the cell number change was 7.04%. Besides, the AC50 under setting [2] was 0.116 µM [rising, full curve, poor fit].
Regarding `NC(=O)c1ccccc1N/C=C1\CCCCC1=O`, the cell number change was 2.53%. Also, the concentration at half-maximal activity (AC50) under setting [2] was 0.411 µM [falling, partial curve, poor fit].
On to `O=C(O)CC(CP(=O)(c1ccccc1)c1ccccc1)C(=O)O` (stereo not drawn), for which the cell number change amounted to 16.8%. The AC50 under setting [2] is 0.0058 µM [rising, full curve, poor fit].
For the molecule `COCCNC(=O)c1cn(C)c2ccc(S(=O)(=O)N(C)C3CCCCC3)cc2c1=O`, the cell number change is 15.7%. Further, under setting [2], the half-maximal activity concentration (AC50) is 9.2 µM [rising, partial curve, poor fit].
In the case of `Cc1cccc(Nc2nc(NCc3ccco3)c3ccccc3n2)c1`, the cell number change was -84.7%. The concentration at half-maximal activity (AC50) under setting [1] was 8.2 µM [falling, partial curve]. Further, under setting [2], the AC50 was 3.26 µM [falling, partial curve].
Consider `Cc1csc(NC(=O)c2cccc(S(=O)(=O)N3CCCCC3)c2)n1`, for which the AC50 under setting [1] was 0.411 µM [rising, single point].
For the molecule `COc1ccccc1NC(=O)NCCCl`, the cell number change turned out to be 25.1%. Further, the AC50 under setting [2] is 11.6 µM [rising, partial curve, poor fit].
As to `Cc1sc2ncnc(Sc3nnnn3-c3ccccc3)c2c1C`, the cell number change is -7.47%. In addition, under setting [1], the AC50 was 4.61 µM [falling, single point]. For the same molecule, the AC50 under setting [2] is 3.26 µM [falling, full curve].
For `COCCCNC(=S)N/N=C/c1ccc(N(C)C)cc1`, the cell number change was 39.6%. Besides, the concentration at half-maximal activity (AC50) under setting [1] is 6.51 µM [rising, partial curve].
As for `Cc1ccc2cccc(OCCOCCOc3ccccc3Br)c2n1`, the cell number change was found to be 17.6%.
Take `CC(C)(C)c1ccc(O)c(/C=N\O)c1`: the cell number change is -31.2%. For the same molecule, under setting [1], the concentration at half-maximal activity (AC50) is 0.206 µM [falling, partial curve, poor fit]. Further, under setting [2], the concentration at half-maximal activity (AC50) is 29.1 µM [falling, single point].
As for `CC(C)c1ccc(Nc2nc(Cl)nc(NCCO)n2)cc1`, the cell number change was -5.67%.
Regarding `CCOC(=O)N1CCC(N2CCN(S(=O)(=O)c3ccc(Cl)cc3)CC2)CC1`, the cell number change is -4.84%. For the same molecule, the AC50 under setting [1] is 5.8 µM [rising, single point]. Also, the concentration at half-maximal activity (AC50) under setting [2] is 29.1 µM [rising, single point].
Regarding `NNC(=O)c1nc[nH]c1C(=O)Nc1ccccc1[N+](=O)[O-]`, the half-maximal activity concentration (AC50) under setting [1] is 0.82 µM [rising, full curve].
Turning to `CCC1(c2ccc(F)cc2)NC(=O)N(CC(=O)Nc2ccc(C(N)=O)cc2)C1=O` (stereo not drawn), the cell number change was found to be 1.61%. Moreover, the AC50 under setting [2] was 23.1 µM [rising, partial curve, poor fit].
In the case of `O=C(O)Cc1ccc2sc(-c3ccccc3)nc2c1`, the concentration at half-maximal activity (AC50) under setting [2] is 23.1 µM [falling, partial curve, poor fit].
In the case of `COC(=O)CSc1nc(C)cc(C)n1`, the cell number change came out at 28.4%. Under setting [2], the half-maximal activity concentration (AC50) is 8.2 µM [rising, single point].
For `Cc1cc(OCC(=O)Nc2cc(S(=O)(=O)N3CCOCC3)ccc2N2CCCC2)ccc1C(C)C`, the cell number change is -7%.
As to `Cc1onc(-c2ccccc2Cl)c1C(=O)N(C)Cc1ccccc1`, the cell number change was -1.42%. Moreover, the AC50 under setting [1] is 1.64 µM [rising, partial curve, poor fit].
On to `CCc1nn(CC(=O)NCCCN2CCN(C)CC2)c(=O)c2cc3occc3n12`, for which the cell number change was -11.6%. Further, under setting [2], the AC50 was 29.1 µM [rising, single point].
`Cc1cccc(-n2c(=O)[nH]c3c(C(N)=O)nc(-c4ccccc4Cl)nc32)c1`: the cell number change was -115%. Under setting [1], the AC50 was 29.1 µM [falling, partial curve]. Besides, the AC50 under setting [2] was 29.1 µM [falling, single point].
For the molecule `CCOC(=O)C1=C(O)C(Nc2nc3ccccc3s2)(C(F)(F)F)N=C1C` (stereo not drawn), the cell number change was -18.3%.
As for `O=C(CCS(=O)(=O)c1ccccc1)Nc1ccc(-c2nc3ccccc3s2)cc1`, the cell number change was -26.5%. Also, the AC50 under setting [2] was 7.31 µM [falling, partial curve].
Turning to `COc1ccc(S(=O)(=O)NCC(c2ccc3c(c2)OCO3)N2CCN(c3ccccc3)CC2)cc1` (stereo not drawn), the cell number change worked out at 2.38%. For the same molecule, the AC50 under setting [2] is 29.1 µM [falling, single point].
As to `O=C(NNC(=O)c1cccs1)c1cccc(F)c1`, the cell number change worked out at 16.7%. Also, under setting [1], the half-maximal activity concentration (AC50) is 2.06 µM [rising, partial curve, poor fit].
Take `CC(=O)c1ccc(OCCCC(=O)NCCc2ccc(C(F)(F)F)cc2)cc1`: the AC50 by setting is: under setting [1], 0.651 µM [rising, single point]; under setting [2], 25.9 µM [rising, partial curve, poor fit].
For the molecule `CCOC(=O)CSc1nnc(CNc2cccc(Cl)c2)n1-c1ccccc1`, the cell number change is -21.6%. For the same molecule, the concentration at half-maximal activity (AC50) under setting [2] is 1.64 µM [falling, full curve, poor fit].
Consider `CCOc1ccccc1N(CC(=O)Nc1c(C)n(C)n(-c2ccccc2)c1=O)S(=O)(=O)c1ccccc1`, for which the cell number change turned out to be 28.4%. The AC50 under setting [2] was 29.1 µM [rising, single point].
As to `CCOc1ccc(/C=C2\CCc3ccccc3C2=O)cc1`, the cell number change amounted to 2.07%.
On to `COc1ccc2nc(NNC(=O)C3COc4ccccc4O3)sc2c1` (stereo not drawn), for which the cell number change was found to be 6.59%. Under setting [2], the half-maximal activity concentration (AC50) is 3.66 µM [rising, partial curve].
Take `Cc1nc(NCC2CCCO2)c2nnn(Cc3ccccc3)c2n1` (stereo not drawn): the cell number change is -40.6%. Under setting [2], the concentration at half-maximal activity (AC50) was 7.31 µM [falling, single point].
Turning to `CC(C)[C@H](NS(=O)(=O)c1ccc2c(c1)OCCO2)C(=O)OCC(=O)Nc1cccc(Cl)c1Cl`, the cell number change was determined as 24.2%. Under setting [1], the half-maximal activity concentration (AC50) was 4.61 µM [rising, full curve, poor fit]. Moreover, under setting [2], the AC50 is 0.517 µM [rising, full curve].
Consider `O=C(NCCC1=CCCCC1)C1CCC(=O)N(Cc2cccc(C(F)(F)F)c2)C1` (stereo not drawn), for which the cell number change was -3.14%. Under setting [2], the AC50 was 0.206 µM [falling, full curve, poor fit].
On to `COc1cc(C(=S)N2CCCC2)ccc1OS(=O)(=O)c1ccc(NC(C)=O)cc1`, for which the cell number change is -1.97%. In addition, the AC50 under setting [1] is 6.51 µM [falling, single point].
Take `O=C(N/N=C/C=C/c1ccco1)c1cccc([N+](=O)[O-])c1`: under setting [2], the AC50 is 0.58 µM [falling, full curve, poor fit].
For the molecule `Cn1cccc1C(=O)NC(=O)COC(=O)CNC(=O)c1ccc(Cl)cc1Cl`, the cell number change was -30.2%. Further, the AC50 under setting [1] was 6.51 µM [falling, partial curve, poor fit]. For the same molecule, under setting [2], the AC50 was 23.1 µM [falling, partial curve, poor fit].
As to `COc1ccc(CCC(=O)NNC(=S)Nc2cccc(C(C)=O)c2)cc1`, the cell number change is -7.23%.
On to `COC(=O)Cc1ccc(NC(=S)NC2CC2)cc1`, for which the cell number change amounted to 0.903%. Besides, under setting [2], the AC50 is 0.731 µM [falling, full curve].
For the molecule `COc1cccc(C(=O)NNC(=O)C2CCCO2)c1` (stereo not drawn), the cell number change was 16.7%. Further, under setting [2], the AC50 is 2.91 µM [rising, partial curve].
As for `COc1cc(C(=O)NC(CCSC)C(=O)OCc2cc([N+](=O)[O-])cc3c2OCOC3)cc(OC)c1OC` (stereo not drawn), the cell number change amounted to 33.6%. Moreover, the AC50 under setting [1] is 1.64 µM [rising, full curve, poor fit]. Further, under setting [2], the AC50 is 1.64 µM [rising, partial curve, poor fit].
Regarding `CC(C)(C)Cc1nnc(NC(=O)c2cc(-c3ccccc3)nc3ccccc23)s1`, the cell number change is 42.8%. The concentration at half-maximal activity (AC50) under setting [1] is 0.731 µM [rising, full curve].
In the case of `Cc1ccccc1CS(=O)(=O)Cc1ccc(C(=O)N2CCOCC2)o1`, the cell number change turned out to be 9.02%. In addition, under setting [2], the AC50 is 2.59 µM [falling, full curve, poor fit].
`CCCCOC(=O)Nc1ccc(S(=O)(=O)Nc2ncccn2)cc1`: the cell number change is -8.6%.
For `COc1cc(OC)cc(C(=O)N[C@@H](CCSC)c2nc3ccccc3[nH]2)c1`, the cell number change was -0.311%. For the same molecule, the AC50 under setting [1] is 0.82 µM [rising, partial curve]. The concentration at half-maximal activity (AC50) under setting [2] is 1.3 µM [rising, partial curve, poor fit].
Consider `CC(CC1CC(C)(C)OC1=O)C(=O)Nc1nncs1` (stereo not drawn), for which the cell number change was -2.38%. Further, the AC50 under setting [2] is 1.64 µM [falling, full curve].
Consider `N#C/C(=C(/O)COc1ccc(Br)cc1)c1nnc2n1CCCCC2`, for which the cell number change was -24.8%. Moreover, the concentration at half-maximal activity (AC50) under setting [1] is 3.26 µM [falling, full curve, poor fit]. In addition, under setting [2], the concentration at half-maximal activity (AC50) is 2.06 µM [falling, full curve].
As to `c1ccc2c(c1)CCN2CCN1CCc2ccccc21`, under setting [2], the concentration at half-maximal activity (AC50) was 4.61 µM [falling, single point].
Regarding `OC(c1ccccc1)c1cccnc1` (stereo not drawn), the cell number change was found to be 12.2%. Moreover, the concentration at half-maximal activity (AC50) under setting [2] is 14.6 µM [rising, partial curve].
As to `O=C(/C=C/c1ccc(F)cc1)NCCCN1CCN(CCCNC(=O)/C=C/c2ccc(F)cc2)CC1`, the cell number change is -46.8%. Further, the concentration at half-maximal activity (AC50) under setting [1] is 0.461 µM [falling, full curve, poor fit]. For the same molecule, the half-maximal activity concentration (AC50) under setting [2] was 0.00461 µM [falling, full curve, poor fit].
On to `CCC(Oc1ccccc1)C(=O)Nc1ccccn1` (stereo not drawn), for which the cell number change is -6.89%. In addition, the concentration at half-maximal activity (AC50) under setting [1] was 0.058 µM [falling, partial curve, poor fit].
Consider `COCCn1c(C)cc(/C=C(\C#N)C(=O)OCC(=O)Nc2ccc(S(N)(=O)=O)cc2)c1C`, for which the cell number change came out at 17%.
